# Reference: the supplement of paper PMC8728848
# Some of the results follow.
# Columns and labels:
# Experiment in all cases: glycan array binding signal (z-score within array); higher = stronger binding
# Conditions in all cases: glycan notation: IUPAC condensed, linker removed
# [1] = target: Gal(b1-4)GlcNAc(b1-3)Gal(b1-4)GlcNAc(b1-2)[Gal(b1-4)GlcNAc(b1-3)Gal(b1-4)GlcNAc(b1-6)]Man(a1-6)[Gal(b1-4)GlcNAc(b1-3)Gal(b1-4)GlcNAc(b1-2)Man(a1-3)]Man(b1-4)GlcNAc(b1-4)GlcNAc
# Summary of the method: (§1)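 The binding signal is a Z-score computed within each array. Data were drawn from 3228 arrays in the Consortium for Functional Glycomics database, restricted to those with a known protein sequence. Scores were averaged over arrays of the same protein sequence at different concentrations or buffers, and over linkers, and negative values can be taken as non-binding.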
# [2] = target: Gal(b1-4)GlcNAc(b1-3)Gal(b1-4)GlcNAc(b1-2)[Gal(b1-4)GlcNAc(b1-3)Gal(b1-4)GlcNAc(b1-6)]Man(a1-6)[Gal(b1-4)GlcNAc(b1-3)Gal(b1-4)GlcNAc(b1-2)Man(a1-3)]Man(b1-4)GlcNAc(b1-4)[Fuc(a1-6)]GlcNAc
# Summary of the method: as §1
# [3] = target: Gal(b1-4)GlcNAc(b1-3)Gal(b1-4)GlcNAc(b1-3)Gal(b1-4)GlcNAc
# Summary of the method: as §1
# [4] = target: Gal(b1-4)GlcNAc(b1-3)Gal(b1-4)GlcNAc(b1-3)Gal(b1-4)GlcNAc(b1-2)Man(a1-3)[Gal(b1-4)GlcNAc(b1-3)Gal(b1-4)GlcNAc(b1-3)Gal(b1-4)GlcNAc(b1-2)Man(a1-6)]Man(b1-4)GlcNAc(b1-4)GlcNAc
# Summary of the method: as §1
# [5] = target: Gal(b1-4)GlcNAc(b1-3)Gal(b1-4)GlcNAc(b1-3)Gal(b1-4)GlcNAc(b1-2)Man(a1-3)[Gal(b1-4)GlcNAc(b1-3)Gal(b1-4)GlcNAc(b1-3)Gal(b1-4)GlcNAc(b1-2)Man(a1-6)]Man(b1-4)GlcNAc(b1-4)[Fuc(a1-6)]GlcNAc
# Summary of the method: as §1
# [6] = target: Gal(b1-4)GlcNAc(b1-3)Gal(b1-4)GlcNAc(b1-3)Gal(b1-4)GlcNAc(b1-2)[Gal(b1-4)GlcNAc(b1-3)Gal(b1-4)GlcNAc(b1-3)Gal(b1-4)GlcNAc(b1-6)]Man(a1-6)[Gal(b1-4)GlcNAc(b1-3)Gal(b1-4)GlcNAc(b1-3)Gal(b1-4)GlcNAc(b1-2)Man(a1-3)]Man(b1-4)GlcNAc(b1-4)[Fuc(a1-6)]GlcNAc
# Summary of the method: as §1
# [7] = target: Gal(b1-4)GlcNAc(b1-3)Gal(b1-4)GlcNAc(b1-3)Gal(b1-4)GlcNAc(b1-3)Gal(b1-4)GlcNAc(b1-2)Man(a1-3)[Gal(b1-4)GlcNAc(b1-3)Gal(b1-4)GlcNAc(b1-3)Gal(b1-4)GlcNAc(b1-3)Gal(b1-4)GlcNAc(b1-2)Man(a1-6)]Man(b1-4)GlcNAc(b1-4)GlcNAc
# Summary of the method: as §1
# [8] = target: Gal(b1-4)GlcNAc(b1-3)Gal(b1-4)GlcNAc(b1-3)Gal(b1-4)GlcNAc(b1-3)Gal(b1-4)GlcNAc(b1-2)Man(a1-3)[Gal(b1-4)GlcNAc(b1-3)Gal(b1-4)GlcNAc(b1-3)Gal(b1-4)GlcNAc(b1-3)Gal(b1-4)GlcNAc(b1-2)Man(a1-6)]Man(b1-4)GlcNAc(b1-4)[Fuc(a1-6)]GlcNAc
# Summary of the method: as §1
# [9] = target: Gal(b1-4)GlcNAc(b1-3)Gal(b1-4)GlcNAc(b1-3)Gal(b1-4)GlcNAc(b1-3)Gal(b1-4)GlcNAc(b1-2)[Gal(b1-4)GlcNAc(b1-3)Gal(b1-4)GlcNAc(b1-3)Gal(b1-4)GlcNAc(b1-3)Gal(b1-4)GlcNAc(b1-6)]Man(a1-6)[Gal(b1-4)GlcNAc(b1-3)Gal(b1-4)GlcNAc(b1-3)Gal(b1-4)GlcNAc(b1-3)Gal(b1-4)GlcNAc(b1-2)Man(a1-3)]Man(b1-4)GlcNAc(b1-4)[Fuc(a1-6)]GlcNAc
# Summary of the method: as §1
# [10] = target: Gal(b1-4)GlcNAc(b1-3)Gal(b1-4)GlcNAc(b1-3)Gal(b1-4)GlcNAc(b1-3)Gal(b1-4)GlcNAc(b1-3)Gal(b1-4)GlcNAc(b1-2)Man(a1-3)[Gal(b1-4)GlcNAc(b1-3)Gal(b1-4)GlcNAc(b1-3)Gal(b1-4)GlcNAc(b1-3)Gal(b1-4)GlcNAc(b1-3)Gal(b1-4)GlcNAc(b1-2)Man(a1-6)]Man(b1-4)GlcNAc(b1-4)GlcNAc
# Summary of the method: as §1
# [11] = target: Gal(b1-4)GlcNAc(b1-3)Gal(b1-4)GlcNAc(b1-3)Gal(b1-4)GlcNAc(b1-3)Gal(b1-4)GlcNAc(b1-3)Gal(b1-4)GlcNAc(b1-2)Man(a1-3)[Gal(b1-4)GlcNAc(b1-3)Gal(b1-4)GlcNAc(b1-3)Gal(b1-4)GlcNAc(b1-3)Gal(b1-4)GlcNAc(b1-3)Gal(b1-4)GlcNAc(b1-2)Man(a1-6)]Man(b1-4)GlcNAc(b1-4)[Fuc(a1-6)]GlcNAc
# Summary of the method: as §1
# [12] = target: Gal(b1-4)GlcNAc(b1-3)Gal(b1-4)GlcNAc(b1-3)Gal(b1-4)GlcNAc(b1-3)Gal(b1-4)GlcNAc(b1-3)Gal(b1-4)GlcNAc(b1-2)[Gal(b1-4)GlcNAc(b1-3)Gal(b1-4)GlcNAc(b1-3)Gal(b1-4)GlcNAc(b1-3)Gal(b1-4)GlcNAc(b1-3)Gal(b1-4)GlcNAc(b1-6)]Man(a1-6)[Gal(b1-4)GlcNAc(b1-3)Gal(b1-4)GlcNAc(b1-3)Gal(b1-4)GlcNAc(b1-3)Gal(b1-4)GlcNAc(b1-3)Gal(b1-4)GlcNAc(b1-2)Man(a1-3)]Man(b1-4)GlcNAc(b1-4)[Fuc(a1-6)]GlcNAc
# Summary of the method: as §1
# [13] = target: Gal(b1-4)GlcNAc(b1-3)Gal(b1-4)GlcNAc(b1-3)Gal(b1-4)GlcNAc(b1-3)Gal(b1-4)GlcNAc(b1-3)Gal(b1-4)GlcNAc(b1-3)Gal(b1-4)GlcNAc(b1-2)Man(a1-3)[Gal(b1-4)GlcNAc(b1-3)Gal(b1-4)GlcNAc(b1-3)Gal(b1-4)GlcNAc(b1-3)Gal(b1-4)GlcNAc(b1-3)Gal(b1-4)GlcNAc(b1-3)Gal(b1-4)GlcNAc(b1-2)Man(a1-6)]Man(b1-4)GlcNAc(b1-4)GlcNAc
# Summary of the method: as §1
# [14] = target: Gal(b1-4)GlcNAc(b1-3)Gal(b1-4)GlcNAc(b1-3)GalNAc
# Summary of the method: as §1
# [15] = target: Gal(b1-4)GlcNAc(b1-3)Gal(b1-4)GlcNAc(b1-3)[Gal(b1-4)GlcNAc(b1-3)Gal(b1-4)GlcNAc(b1-6)]GalNAc
# Summary of the method: as §1
# [16] = target: Gal(b1-4)GlcNAc(b1-3)Gal(b1-4)GlcNAc(b1-6)[Gal(b1-3)]GalNAc
# Summary of the method: as §1
# [17] = target: Gal(b1-4)GlcNAc(b1-3)Gal(b1-4)[Fuc(a1-3)GlcNAc(b1-6)]Gal(b1-4)Glc
# Summary of the method: as §1
# [18] = target: Gal(b1-4)GlcNAc(b1-3)Gal(b1-4)[Fuc(a1-3)]GlcNAc(b1-3)Gal(b1-4)[Fuc(a1-3)]GlcNAc
# Summary of the method: as §1
# [19] = target: Gal(b1-4)GlcNAc(b1-3)GalNAc
# Summary of the method: as §1
# [20] = target: Gal(b1-4)GlcNAc(b1-3)[Gal(b1-4)GlcNAc(b1-6)]Gal(b1-4)GlcNAc
# Summary of the method: as §1
# [21] = target: Gal(b1-4)GlcNAc(b1-3)[GlcNAc(b1-6)]Gal(b1-4)GlcNAc
# Summary of the method: as §1
# [22] = target: Gal(b1-4)GlcNAc(b1-6)Gal(b1-4)GlcNAc
# Summary of the method: as §1
# [23] = target: Gal(b1-4)GlcNAc(b1-6)GalNAc
# Summary of the method: as §1
# [24] = target: Gal(b1-4)GlcNAc(b1-6)[Gal(b1-3)]GalNAc
# Summary of the method: as §1
# [25] = target: Gal(b1-4)GlcNAc(b1-6)[Gal(b1-4)GlcNAc(b1-3)]GalNAc
# Summary of the method: as §1
# Gal(b1-4)GlcNAc6P = target: Gal(b1-4)GlcNAc6P
# Summary of the method: as §1
# Gal(b1-6)Gal = target: Gal(b1-6)Gal
# Summary of the method: as §1
# Gal3S(b1-3)GalNAc = target: Gal3S(b1-3)GalNAc
# Summary of the method: as §1
# Gal3S(b1-3)GlcNAc = target: Gal3S(b1-3)GlcNAc
# Summary of the method: as §1
# [26] = target: Gal3S(b1-3)[Fuc(a1-4)]GalNAc
# Summary of the method: as §1
# [27] = target: Gal3S(b1-3)[Fuc(a1-4)]GlcNAc
# Summary of the method: as §1
# Gal3S(b1-4)Glc = target: Gal3S(b1-4)Glc
# Summary of the method: as §1
# Gal3S(b1-4)Glc6S = target: Gal3S(b1-4)Glc6S
# Summary of the method: as §1
# Gal3S(b1-4)GlcNAc = target: Gal3S(b1-4)GlcNAc
# Summary of the method: as §1
# [28] = target: Gal3S(b1-4)[Fuc(a1-3)]Glc6S
# Summary of the method: as §1
# [29] = target: Gal3S(b1-4)[Fuc(a1-3)]GlcNAc
# Summary of the method: as §1
# [30] = target: Gal3S(b1-4)[Fuc(a1-3)]GlcNAc6S
# Summary of the method: as §1
binder,measurement,setting,value
"RbmA (Vibrio cholerae), A0A2H4NFB8 (protein) MSNFKGSIMNKRHYYLASCLALLFSTASYAEVDCELQPVIEANLSLNQNQLASNGGYISSQLGIRNESCETVKFKYWLSIKGPEGIYFPAKAVVGVDTAQQESDALTDGRMLNVTRGFWVPEYMADGKYTVSLQVVAENGEVFKANQEFVKGGDLNSLPELNGLTIDIKNQFGINSVESTGGFVPFTIDLNNGREGEAKVEFWMTAVGPDGLIIPVHSREKWMIIAGNTFSKVRGINFDKSYPAGEYTINAQVVDIVSGERVEQLMTVVKK",glycan array binding signal (z-score),[1],0.839
same,glycan array binding signal (z-score),[2],0.171
same,glycan array binding signal (z-score),[3],0.005
same,glycan array binding signal (z-score),[4],0.826
same,glycan array binding signal (z-score),[5],0.84
same,glycan array binding signal (z-score),[6],0.801
same,glycan array binding signal (z-score),[7],0.191
same,glycan array binding signal (z-score),[8],0.472
same,glycan array binding signal (z-score),[9],4.03
same,glycan array binding signal (z-score),[10],5.93
same,glycan array binding signal (z-score),[11],1.64
same,glycan array binding signal (z-score),[12],7.99
same,glycan array binding signal (z-score),[13],-0.267
same,glycan array binding signal (z-score),[14],0.081
same,glycan array binding signal (z-score),[15],-0.3
same,glycan array binding signal (z-score),[16],-0.926
same,glycan array binding signal (z-score),[17],-0.866
same,glycan array binding signal (z-score),[18],0.661
same,glycan array binding signal (z-score),[19],-0.505
same,glycan array binding signal (z-score),[20],-0.496
same,glycan array binding signal (z-score),[21],-0.799
same,glycan array binding signal (z-score),[22],0.566
same,glycan array binding signal (z-score),[23],-0.865
same,glycan array binding signal (z-score),[24],-0.35
same,glycan array binding signal (z-score),[25],-0.156
same,glycan array binding signal (z-score),Gal(b1-4)GlcNAc6P,-0.433
same,glycan array binding signal (z-score),Gal(b1-6)Gal,-0.486
same,glycan array binding signal (z-score),Gal3S(b1-3)GalNAc,-0.835
same,glycan array binding signal (z-score),Gal3S(b1-3)GlcNAc,0.506
same,glycan array binding signal (z-score),[26],0.825
same,glycan array binding signal (z-score),[27],1.05
same,glycan array binding signal (z-score),Gal3S(b1-4)Glc,-0.285
same,glycan array binding signal (z-score),Gal3S(b1-4)Glc6S,-0.319
same,glycan array binding signal (z-score),Gal3S(b1-4)GlcNAc,-0.123
same,glycan array binding signal (z-score),[28],0.205
same,glycan array binding signal (z-score),[29],-0.325
same,glycan array binding signal (z-score),[30],-0.157

# A portion of the results above, as a working copy:
binder,measurement,setting,value
"RbmA (Vibrio cholerae), A0A2H4NFB8 (protein) MSNFKGSIMNKRHYYLASCLALLFSTASYAEVDCELQPVIEANLSLNQNQLASNGGYISSQLGIRNESCETVKFKYWLSIKGPEGIYFPAKAVVGVDTAQQESDALTDGRMLNVTRGFWVPEYMADGKYTVSLQVVAENGEVFKANQEFVKGGDLNSLPELNGLTIDIKNQFGINSVESTGGFVPFTIDLNNGREGEAKVEFWMTAVGPDGLIIPVHSREKWMIIAGNTFSKVRGINFDKSYPAGEYTINAQVVDIVSGERVEQLMTVVKK",glycan array binding signal (z-score),[7],0.191
same,glycan array binding signal (z-score),[8],0.472
